Results on 62 molecules are retold here after PubChem BioAssay AID493014 (National Center for Advancing Translational Sciences (NCATS), 2011).

This assay can be described thus: qHTS Assay to Find Inhibitors of Chronic Active B-Cell Receptor Signaling. The note with it: ABC-DLBCL IkBa-CBG/CBR reporter, luminescence ratio (green luciferase fused to IkBa over red control in TMD8 lymphoma cells), 4 h. In a few lines:
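Compounds up to 46 uM were incubated four hours with TMD8 cells whose green CBG68 luciferase is fused to IkappaBalpha; red CBR luminescence normalised the signal, and concentration-effect curves were fitted to fusion, red and ratio data.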
(In qHTS, concentration-response curves come from the screen itself.)

Setting [1] is: measured here: IkBa-CBG green luminescence.
Where [2] appears, read: measured here: CBR red luminescence, cell number.

The structures appear in SMILES notation. The list shows a part of the results. The main result of the screen is listed elsewhere. These columns were measured beside it and carry no call. Compounds called inactive in the main read-out are mostly missing here. Potencies come from curve fits of mixed quality, noted in brackets.

Consider `C#C[C@]1(O)CC[C@H]2[C@@H]3CCc4cc(O)ccc4[C@H]3CC[C@@]21C`, for which the AC50 under setting [1] is 11.6 µM [falling, partial curve].
In the case of `Cc1ccc(NCc2nnc(SCC(=O)Nc3cccc(O)c3)n2CC2CCCO2)c(C)c1` (centres undefined), the AC50 under setting [2] was 8.91 µM [falling, partial curve, poor fit].
Consider `COc1ccc(C2CC(=O)N(C)c3ccccc3S2)cc1OC` (centres undefined), for which the AC50 is 35.5 µM [falling, single point] under setting [2] and 12.6 µM [falling, single point] under setting [1].
As for `COc1ccc(CCCC(=O)Nc2ccccc2F)cc1`, the AC50 under setting [2] was 4.61 µM [falling, full curve].
As to `Cc1ccccc1-c1nn(-c2ccc(F)cc2F)cc1CNCCCN(C)C`, the AC50 under setting [2] is 20 µM [falling, partial curve, poor fit].
As to `COC(=O)c1c(C)[nH]c(C(=O)CSc2ccc(Cl)cc2)c1C`, the AC50 under setting [2] is 3.66 µM [rising, partial curve, poor fit].
For `Cc1noc(NS(=O)(=O)c2ccc(N/C=C/C(=O)c3ccc4c(c3)OCO4)cc2)c1C`, the AC50 under setting [2] is 35.5 µM [falling, single point].
`CCc1ccc2[nH]c(=O)c(C(c3nnnn3CCOC)N3CCN(c4ccccc4F)CC3)cc2c1` (centres undefined): the half-maximal activity concentration (AC50) under setting [2] is 2.31 µM [rising, partial curve, poor fit].
Same read-out and setting: next, `CC1(C)Cc2c(C#N)c(SCCOc3ccccc3)nc(N3CCOCC3)c2CO1`: 0.58 µM [falling, partial curve, poor fit]; `O=C(CSc1cnc2ccccc2n1)c1ccc(F)cc1`: 14.6 µM [falling, single point]; `Clc1ccc2c(NCc3ccccn3)ncnc2c1`: 0.82 µM [falling, full curve].
For `CCOc1ccc(OCC(=O)Nc2ccc(OC)cc2)cc1`, the AC50 under setting [2] is 5.8 µM [rising, full curve, poor fit].
Take `CC(=O)NC(CC(=O)NNC(=O)C(C)Oc1ccccc1F)c1ccccc1` (centres undefined): the AC50 under setting [2] is 0.731 µM [rising, full curve, poor fit].
On the same count and under the same terms, next, `CN(C)S(=O)(=O)c1cccc(C(=O)NCC2CCCO2)c1` (centres undefined): 10.3 µM [rising, partial curve, poor fit]; `COc1ccc(NC(=O)COC(=O)c2c3c(nc4ccccc24)CCCC3)cc1Cl`: 32.6 µM [falling, partial curve, poor fit].
As to `COc1ccc(COC(=O)c2n[nH]c3ccccc23)cc1F`, under setting [2], the AC50 was 0.651 µM [rising, full curve, poor fit].
With `COC(=O)C1CCN(C(c2cccs2)c2sc3nc(C)nn3c2O)CC1` (centres undefined), the AC50 under setting [2] is 13 µM [rising, partial curve].
`C/C(=N\NC(=O)c1cccc(O)c1)c1ccc(NC(=O)Cc2ccccc2)cc1`: the AC50 under setting [2] was 1.26 µM [falling, full curve, poor fit].
Take `N#CCC(=O)Nc1ccc(C(=O)OCC(=O)Nc2cccc(C(F)(F)F)c2)cc1`: the AC50 under setting [2] is 35.5 µM [falling, single point].
Turning to `Nc1ncnc2c1C(c1ccccc1)c1c(ccc3ccccc13)O2` (centres undefined), under setting [2], the AC50 is 20.6 µM [falling, single point].
Take `Cc1cc(NC(=O)CSc2nnc3ccc(-c4ccc(F)cc4)nn23)no1`: the AC50 under setting [2] was 20.6 µM [rising, partial curve, poor fit].
Same read-out and setting: the same measure for `O=c1c2cc(-c3ccccc3)sc2nc2n1CCC2`: 2.24 µM [falling, partial curve, poor fit]; for `CC(C)c1ccc(NC(=O)C(c2ccccc2)N2CCOCC2)cc1` (centres undefined): 10 µM [rising, partial curve, poor fit].
For the molecule `CCNC(=O)N1CCC(c2nc3ccccc3s2)CC1`, under setting [2], the AC50 was 0.1 µM [rising, full curve, poor fit].
As for `O=C(NCC(=O)N1CCCC(C(F)(F)F)C1)c1ccc(Oc2ccccc2)cc1` (centres undefined), the AC50 is, setting by setting: under setting [2], 11.2 µM [rising, partial curve]; under setting [1], 7.08 µM [falling, partial curve].
Take `Cc1cc(C)c(S(=O)(=O)c2ccccc2)c(OC(=O)c2c(Cl)cc(Cl)cc2Cl)n1`: the AC50 under setting [2] is 3.16 µM [rising, partial curve].
Turning to `CCOc1ccc(/C(O)=C2\C(=O)C(=O)N(c3ccc(OC)cc3)C2c2ccccc2[N+](=O)[O-])cc1` (centres undefined), under setting [2], the AC50 is 8.91 µM [falling, partial curve, poor fit].
Take `O=C(O)CCNc1ccc(NCCC(=O)O)c2c1C(=O)c1ccccc1C2=O`: the AC50 under setting [2] is 10 µM [falling, partial curve].
Consider `C[C@H](CO)N1C[C@H](C)[C@@H](CN(C)C(=O)Nc2ccccc2)Oc2c(NS(=O)(=O)c3cn(C)cn3)cccc2C1=O`, for which, under setting [2], the AC50 is 5.8 µM [rising, full curve].
As to `Clc1cccc(Nc2ncnc3ccc(Br)cc23)c1`, under setting [2], the AC50 is 12.6 µM [falling, partial curve].
On the same count and under the same terms, the same measure for `Cc1nn(C)cc1S(=O)(=O)N1CCN(c2ccccc2F)CC1`: 5.62 µM [falling, full curve, poor fit].
As for `CCc1cccc(NC(=O)c2ccc(Cn3nc(C)cc3C)o2)c1`, the AC50 under setting [2] was 32.6 µM [rising, partial curve, poor fit].
As to `CCOC(=O)Nc1ccc2c(COC(=O)CNS(=O)(=O)c3ccc(NC(C)=O)cc3)cc(=O)oc2c1`, the AC50 under setting [2] was 7.94 µM [rising, partial curve].
For `O=C(Nc1nnc(-c2ccccc2SCc2ccccc2)s1)Nc1ccccc1F`, the AC50 under setting [2] was 0.631 µM [rising, full curve, poor fit].
In the case of `N/C(=N\OC(=O)CC1CCCCC1)c1ccc(Br)cc1`, the AC50 under setting [2] was 7.08 µM [rising, partial curve].
In the case of `Cc1cn(CCC(=O)Nc2ccc(N3CCOCC3)cc2)c2ccccc12`, the AC50 under setting [2] is 28.2 µM [rising, single point].
`COc1ccc(-n2c(C)nn(CCOc3ccccc3)c2=O)cc1`: the AC50 under setting [2] was 17.8 µM [rising, partial curve, poor fit].
Same read-out and setting: the same measure for `O=C(N/N=C/c1c(F)c(F)c(F)c(F)c1F)c1cc(-c2ccccc2)nc2ccccc12`: 35.5 µM [rising, single point]; for `CC1CCN(c2cc(N3CCOCC3)c([N+](=O)[O-])cc2F)CC1`: 2.51 µM [rising, full curve].
Consider `CC(C)(C)C(=O)CSc1nc2ccsc2c(=O)n1Cc1ccccc1F`, for which the AC50 under setting [2] is 35.5 µM [rising, single point].
`CCc1cccc(C)c1N1C(=O)CC(C)(C)CC1=O`: the AC50 under setting [2] is 5.62 µM [falling, single point].
Regarding `N=C1/C(=C\c2ccc(OC(=O)c3ccc(F)cc3)cc2)C(=O)N=C2SC(N3CCOCC3)=NN12`, under setting [2], the AC50 was 35.5 µM [falling, single point].
As to `CCOC(=O)[C@H]1[C@H]2COc3ccc(Cl)cc3[C@@H]2N2C(=O)CN(C)C(=O)[C@@]12C`, under setting [2], the AC50 is 0.731 µM [rising, full curve, poor fit].
With `O=S1(=O)CCN(Cc2ccccn2)CC1`, under setting [2], the AC50 was 6.31 µM [rising, full curve, poor fit].
Take `N#Cc1nc(COc2ccc(Cl)cc2Cl)oc1N1CCOCC1`: under setting [2], the AC50 was 2.51 µM [rising, full curve, poor fit].
As to `O=C(CSc1ccc(-c2ccccn2)nn1)N1CCCc2ccccc21`, the AC50 under setting [2] is 1.12 µM [falling, partial curve, poor fit].
With `O=C(O)CCCNc1cc(N2CCC3(CC2)OCCO3)c2noc3c2c1C(=O)c1ccccc1-3`, under setting [2], the AC50 was 12.6 µM [falling, partial curve].
For `CCOC(=O)N1CCN(C(=O)c2ccc(S(=O)(=O)Nc3cccc(C(F)(F)F)c3)cc2)CC1`, the AC50 under setting [2] is 14.6 µM [falling, single point].
Consider `O=C(O)c1ccccc1SCc1cn2cc(Br)ccc2n1`, for which the AC50 under setting [2] is 31.6 µM [rising, single point].
Still for that read-out and setting: next, `O=C(NCC(O)CN1CCOCC1)c1ccc([N+](=O)[O-])cc1` (centres undefined): 35.5 µM [rising, single point]; `Cc1ccc(-c2cc(C(=O)N3CCN(c4ccccc4O)CC3)c3ccccc3n2)o1`: 11.2 µM [falling, partial curve, poor fit].
`Cc1c(C(=O)NCc2cccnc2)oc2ccc(S(=O)(=O)N3CCC4(CC3)OCCO4)cc12`: the AC50 under setting [2] was 0.461 µM [rising, full curve, poor fit].
For `Cc1ccc(NC(=O)c2ccc(Cl)c(N3C(=O)CCC3=O)c2)cc1`, the AC50 under setting [2] was 14.1 µM [falling, partial curve, poor fit].
For the molecule `COc1ccc(-n2nc3c(c2NC(=O)Cc2cccc(C)c2)CS(=O)C3)cc1` (centres undefined), under setting [2], the AC50 was 29.1 µM [falling, single point].
Take `O=c1oc(-c2ccco2)nc2sc3c(c12)CCCCC3`: the AC50 under setting [2] is 1 µM [falling, full curve, poor fit].
The same measure, in the same setting: the same measure for `O=C(c1ccccc1)c1nc2c(n1O)CCCCC2`: 35.5 µM [falling, single point]; for `COc1cccc(C(=O)Oc2ccc(/C=N/Nc3ccc(C(=O)O)cc3)cc2OC)c1`: 0.316 µM [falling, full curve]; for `O=C(O)c1ccccc1C(=O)Nc1ccc(Oc2ccccc2)cc1`: 0.112 µM [rising, full curve, poor fit].
Still for that read-out and setting: the same measure for `O=C1/C(=C\c2cccnc2)SC(=S)N1C1CCS(=O)(=O)C1` (centres undefined): 8.91 µM [falling, partial curve]; for `COc1ccc2cc(CN(CC3CCCO3)S(=O)(=O)c3ccccc3)c(=O)[nH]c2c1` (centres undefined): 2.59 µM [falling, full curve].
Take `COc1cccc(C(=O)OCC(=O)NCCc2ccccc2)c1OC`: the AC50 under setting [2] was 35.5 µM [rising, single point].
As to `O=C(CNC(=O)c1ccccc1)OCc1cccc([N+](=O)[O-])c1`, the concentration at half-maximal activity (AC50) under setting [2] is 13 µM [rising, partial curve, poor fit].

The term AC50 denotes the midpoint of the concentration-response curve, whichever way the signal moves.
